Results are given in words; binding and its absence hold for the method and conditions named. In cells and extracts the contact can be indirect. Some entries that bind do so weakly or less than the wild type. For some assays here: Tags and fused reporters may be left off the sequences shown.
Key:
[1] = target: T1, RIOK3 (human (endogenous in HCT116)) (UniProt O14730); test: co-IP; HCT116 cell lysates, endogenous proteins, immunoprecipitated with anti-RIOK3 antibody; lysis buffer 0.5% NP-40, 150 mM NaCl, 50 mM Tris pH 7.5, 5 mM EDTA; antibody overnight at 4 °C, Protein A + G Agarose
T1 sequence: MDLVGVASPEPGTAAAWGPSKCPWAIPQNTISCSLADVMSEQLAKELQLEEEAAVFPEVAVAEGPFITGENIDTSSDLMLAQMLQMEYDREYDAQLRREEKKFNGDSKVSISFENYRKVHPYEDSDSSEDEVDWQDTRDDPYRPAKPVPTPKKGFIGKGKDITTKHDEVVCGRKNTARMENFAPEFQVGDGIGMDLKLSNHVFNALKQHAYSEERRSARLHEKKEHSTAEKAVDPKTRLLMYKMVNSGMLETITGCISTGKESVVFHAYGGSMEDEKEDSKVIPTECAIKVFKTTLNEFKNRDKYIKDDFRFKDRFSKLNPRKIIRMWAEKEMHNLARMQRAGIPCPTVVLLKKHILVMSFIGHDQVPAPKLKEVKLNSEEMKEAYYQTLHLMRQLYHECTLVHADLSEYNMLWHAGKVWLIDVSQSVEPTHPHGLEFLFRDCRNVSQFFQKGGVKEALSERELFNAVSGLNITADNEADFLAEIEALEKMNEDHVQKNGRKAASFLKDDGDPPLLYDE

flag-RIOK3 = target: T2, flag-RIOK3 (UniProt O14730); test: co-IP; lysates of HCT116 cells transfected with flag-RIOK3 (24 h), immunoprecipitated with anti-flag antibody, blotted with anti-HSP90α; lysis buffer 0.5% NP-40, 150 mM NaCl, 50 mM Tris pH 7.5, 5 mM EDTA; antibody overnight at 4 °C, Protein A + G Agarose
T2 sequence: T1 sequence

Substance: heat shock protein 90α (from UniProt P07900 1-732)
- binding [1]: binds
- binding (flag-RIOK3): binds
